# Reference: patent publication US11174518B2, “Method of classifying and diagnosing cancer” (Cedars-Sinai Medical Center, priority 2015, dated 2021)
# Test system: prostate cancer specimens
# Test: Gene expression patterns (fold change) of subtype-enriched genes in PCS1, PCS2 and PCS3
# Set-up: species or system human
substance,measurement,setting,value
DKK1,Fold Change PCS1,gene expression in PCS1 subtype,−0.3736
same,Fold Change PCS2,gene expression in PCS2 subtype,−0.2958
same,Fold Change PCS3,gene expression in PCS3 subtype,0.5922
same,Fold change in PCS1,"subtype-enriched gene (SEG) expression, subtype PCS1",−0.37
same,Fold change in PCS2,"subtype-enriched gene (SEG) expression, subtype PCS2",−0.3
same,Fold change in PCS3,"subtype-enriched gene (SEG) expression, subtype PCS3",0.592
